PMC12040169 (PLOS Biology, 2025)
Some of the results follow.

test system: T1, CTL2-GFP (C. trachomatis L2/434/Bu, GFP-expressing); set-up: species or system HeLa; Intracellular C. trachomatis growth in HeLa cells, bulk GFP fluorescence relative to DMSO; conditions: bulk GFP, single well; 28.5 h, 10 µM; inhibitor
T1 construct: L2/434/Bu, GFP-expressing

Compound	% of control remaining [%]
CNC(=O)c1cc(NC(=O)NCC2CC(=O)N(CCOC)C2)ccc1F (centres unmarked) [CBK304403]	94.5299
N#C/C(=C/c1ccccc1OCc1cccc([N+](=O)[O-])c1)c1ccc(C(=O)O)cc1 [CBK268748]	129.727
O=C(NCc1ccc(Cl)cc1)c1c(O)c2cc(NS(=O)(=O)c3ccccc3)ccc2[nH]c1=O [CBK017589]	122.9
CCN1CCN(C(=O)CN(Cc2ccccc2)S(C)(=O)=O)CC1 [CBK266735]	89.4102
Cc1nc2ccc(C(=O)NC(C)c3ccccn3)cc2s1 (centres unmarked) [CBK281890]	93.6531
O=C(NCc1ccccc1OC1CCNC1)C1CCCO1 (centres unmarked) [CBK024503T]	128.793
Cc1cc(C(=O)NCCn2ccnc2C)nc2ccccc12 [CBK281894]	138.038
O=C(Nc1sc2c(c1C(=O)NCc1cccnc1)CCCC2)c1ccc(Cl)cc1 [CBK265498]	100
CCOC(=O)CNS(=O)(=O)c1ccc(Cl)c(Cl)c1Cl [CBK034428]	84.4596
COc1ccc(-c2oc(C(=O)N(C)C)c(C(=O)O)c2-c2ccc(OC)cc2)cc1 [CBK001958]	114.838
Cc1cc(O)cc(O)c1/C=N\NC(=O)C1COc2cc3ccccc3cc2O1 (centres unmarked) [CBK262809]	120.745
O=C(NC1CCCc2c1cnn2-c1ccc(F)cc1)c1ccncc1 (centres unmarked) [CBK283929]	111.678
Cc1cc(Cl)c(S(=O)(=O)NCc2ccccc2)cc1OCC(N)=O [CBK266588]	180.569
CCC(Cc1c[nH]c2ccccc12)NC(=N)N (centres unmarked) [CBK010430]	100.248
Cc1ccc(C2(O)CCN(Cc3c(C)nc4cc(C)ccn34)CC2)cc1 [CBK282733]	130.805
CCN1CCCc2cc(-c3cncn3CCCn3ccnc3C)ccc21 [CBK281810]	107.551
Cc1csc2c(N3CCCC3CC(O)c3cnn(C)c3)ncnc12 (centres unmarked) [CBK304477]	115.737
CCCCN1CCC(CNc2nccc3sc(S(=O)(=O)NC4CCC4)cc23)CC1 [CBK038275C]	155.548
O=C(O)CCCC(=O)Nc1ccc([N+](=O)[O-])cc1O [CBK267384]	143.043
Cc1ccccc1S(=O)(=O)N(c1ccc(C(C)(C)C)cc1)C1CCNCC1 [CBK165074T]	126.848
COc1ccccc1C(=O)N1CCN(Cc2cc(OC)c(O)c(OC)c2)CC1 [CBK263484]	121.624
Nc1nc(N)c2cccc(F)c2n1 [CBK025945]	151.728
CC1(C)C(=O)N2CCN=C2c2ccccc21 [CBK009903]	135.81
CC(SCCc1ccccn1)C(=O)O (centres unmarked) [CBK026572]	76.3682
c1cnc(OC2CCN(CC3CCCCC3)CC2)c(OC2CCCCC2)n1 [CBK082879T]	126.929
O=C(NCc1ccccc1)C(Cc1ccc([N+](=O)[O-])cc1)N1C(=O)c2ccccc2C1=O (centres unmarked) [CBK261279]	87.3742
Cc1ccc(C(=O)C(NC(=O)c2cccs2)Nc2ccc(S(N)(=O)=O)cc2)cc1 (centres unmarked) [CBK264897]	120.517

Sorted by length of the SMILES (rising): some entries from above
Compound	% of control remaining [%]
Nc1nc(N)c2cccc(F)c2n1 [CBK025945]	151.728
CC1(C)C(=O)N2CCN=C2c2ccccc21 [CBK009903]	135.81
CCC(Cc1c[nH]c2ccccc12)NC(=N)N (centres unmarked) [CBK010430]	100.248
O=C(NCc1ccccc1OC1CCNC1)C1CCCO1 (centres unmarked) [CBK024503T]	128.793
Cc1cc(C(=O)NCCn2ccnc2C)nc2ccccc12 [CBK281894]	138.038
Cc1nc2ccc(C(=O)NC(C)c3ccccn3)cc2s1 (centres unmarked) [CBK281890]	93.6531
CCOC(=O)CNS(=O)(=O)c1ccc(Cl)c(Cl)c1Cl [CBK034428]	84.4596
Cc1csc2c(N3CCCC3CC(O)c3cnn(C)c3)ncnc12 (centres unmarked) [CBK304477]	115.737
O=C(NC1CCCc2c1cnn2-c1ccc(F)cc1)c1ccncc1 (centres unmarked) [CBK283929]	111.678
CCN1CCN(C(=O)CN(Cc2ccccc2)S(C)(=O)=O)CC1 [CBK266735]	89.4102
c1cnc(OC2CCN(CC3CCCCC3)CC2)c(OC2CCCCC2)n1 [CBK082879T]	126.929
Cc1cc(Cl)c(S(=O)(=O)NCc2ccccc2)cc1OCC(N)=O [CBK266588]	180.569
CNC(=O)c1cc(NC(=O)NCC2CC(=O)N(CCOC)C2)ccc1F (centres unmarked) [CBK304403]	94.5299
Cc1ccc(C2(O)CCN(Cc3c(C)nc4cc(C)ccn34)CC2)cc1 [CBK282733]	130.805
COc1ccccc1C(=O)N1CCN(Cc2cc(OC)c(O)c(OC)c2)CC1 [CBK263484]	121.624
Cc1cc(O)cc(O)c1/C=N\NC(=O)C1COc2cc3ccccc3cc2O1 (centres unmarked) [CBK262809]	120.745
Cc1ccccc1S(=O)(=O)N(c1ccc(C(C)(C)C)cc1)C1CCNCC1 [CBK165074T]	126.848
O=C(Nc1sc2c(c1C(=O)NCc1cccnc1)CCCC2)c1ccc(Cl)cc1 [CBK265498]	100
Cc1ccc(C(=O)C(NC(=O)c2cccs2)Nc2ccc(S(N)(=O)=O)cc2)cc1 (centres unmarked) [CBK264897]	120.517
N#C/C(=C/c1ccccc1OCc1cccc([N+](=O)[O-])c1)c1ccc(C(=O)O)cc1 [CBK268748]	129.727
O=C(NCc1ccc(Cl)cc1)c1c(O)c2cc(NS(=O)(=O)c3ccccc3)ccc2[nH]c1=O [CBK017589]	122.9

Next compounds.

Compound	% of control remaining [%]
CCc1cccc2c(CC(=O)NCCn3ccc(C)n3)c(C)[nH]c12 [CBK282698]	118.401
CSc1[nH]nc(N)c1-c1ccc([N+](=O)[O-])cc1 [CBK016751]	113.546
O=C(Nc1ccc(S(=O)(=O)NCCc2ccccc2)cc1)c1ccncc1 [CBK268172]	93.6626
CCN(CC)CCCCSc1ccc(O)cc1 [CBK261785C]	100
CSCCCNC(=O)C1(c2ccccc2)CCCC1 [CBK149526]	154.769
CC(C)(C)c1cc(C[C@H]2CNCC[C@H]2CC(=O)N2CCN(c3ccc(F)cc3)CC2)no1 [CBK288800]	129.101
CCc1ccccc1NC(=O)Cn1ncnc1Sc1nc2c(c(=O)n(C)c(=O)n2C)n1C [CBK265963]	134.2
Cc1ccc(S(=O)(=O)Nc2ccccc2C(=O)O)cc1[N+](=O)[O-] [CBK042374]	111.18
CN(C)CCC1CCCCN1C(=O)C1C2CCCCC21 (centres unmarked) [CBK282055]	169.788
COc1cccc(C2SCC(=O)Nc3[nH]nc(C)c32)c1 (centres unmarked) [CBK287981]	116.59
Cc1nn(Cc2ccc(F)cc2)c(=O)c2cc3sccc3n12 [CBK284059]	137.491
O=C(O)C(Cc1c[nH]c2ccccc12)NCC1CCCCC1 (centres unmarked) [CBK287238]	121.415
COc1ccc(Nc2ncnc3oc(C)c(C)c23)cc1 [CBK288163]	128.169
Nn1c(-c2cccs2)nc2ccccc2c1=O [CBK003650]	130.734
CS(=O)(=O)N1CCC(Oc2nccnc2OCc2ccc(Cl)c(Cl)c2)CC1 [CBK144910]	110.814
NC1=NC(c2ccc3c(c2)OCO3)n2c(nc3ccccc32)N1 (centres unmarked) [CBK269906]	141.559
CN(C(=O)c1c[nH]nc1C1CCCN(Cc2cc3ccccc3o2)C1)C1CCCCC1 (centres unmarked) [CBK286492]	127.09
Cc1ccc2cc(CN(CCN(C)C)C(=S)Nc3ccccc3)c(=O)[nH]c2c1 [CBK134909]	129.682
CN(C)CCCN1CCCC2(CCN(C(=O)c3cc(F)c(F)cc3F)C2)C1 (centres unmarked) [CBK132005]	100.279
CC(C(=O)NC1CCCN(CC(F)(F)F)C1)n1cnc2ccccc21 (centres unmarked) [CBK304185]	90.9823
Oc1cccc(-c2nccnc2N[C@@H]2CCN(Cc3ccccc3)C2)c1 [CBK037017]	204.03
CC(NC(=O)c1ccccc1Cn1cncn1)C1CC2CCC1C2 (centres unmarked) [CBK281654]	137.945
COc1cc(Nc2cncc(-c3ccccc3CO)n2)cc(OC)c1OC [CBK037160]	101.832
NCC1CCN(c2cc(C(F)(F)F)c3scc(C(=O)NCc4cccc(F)c4F)c3n2)CC1 [CBK036391T]	35.2527
Cc1ncsc1C(=O)N1CCC(c2cccc(Cc3ccc(C(F)(F)F)cc3)n2)CC1 [CBK286216]	81.2533
Cc1ccc(S(=O)(=O)Oc2c(C=C3C(=O)CC(C)(C)CC3=O)[nH]c3ccccc23)cc1 [CBK263464]	118.346
CC(Cc1ccc(N(C)C)cc1)NC(=O)C1CN(S(=O)(=O)c2ccc(F)cc2)C1 (centres unmarked) [CBK285942]	118.704

Compound	% of control remaining [%]
COC(=O)c1ccc(NC(=O)c2oc3ccc(Br)cc3c2C)cc1 [CBK296758]	119.74
O=C(c1ccccc1)c1ccccc1-n1nccn1 [CBK013849]	85.6094
Cc1onc(-c2ccccc2)c1C(=O)N1CCC(C(N)=O)CC1 [CBK158721]	117.359
Cc1nn2cc(CNC(=O)C3Cc4ccccc4O3)nc2s1 (centres unmarked) [CBK307498]	108.64
COC(=O)c1ccccc1NC(=O)C1CCCN(S(=O)(=O)c2cc(Cl)ccc2Cl)C1 (centres unmarked) [CBK268797]	99.8838
CCOc1cccc(-c2cncc(N3CCCC3CO)n2)c1 (centres unmarked) [CBK066004]	121.988
Cc1cc2nc(SCCO)[nH]c2cc1C [CBK027546]	121.292
CC(CNC(=O)Cc1ccc(C(F)(F)F)cc1[N+](=O)[O-])N1CCc2ccccc2C1 (centres unmarked) [CBK298292]	161.328
CCc1nc2ccc(C(=O)Nc3ccc(NC(C)=O)cc3)cn2c1N(C)C(=O)Cc1ccccc1 [CBK146855]	122.604
NC(=O)c1ccccc1/N=C/c1ccc([N+](=O)[O-])o1 [CBK261675]	44.7967
O=C(CCn1c(CO)nc2ccccc21)c1ccccc1 [CBK296947]	119.682
COC(=O)C1=C(C)N(c2ccc(C(=O)O)cc2)C(=O)NC1c1cccc(OC)c1OC (centres unmarked) [CBK295355]	153.944
Cn1cccc1C(=O)OCC(=O)N1CCCCC1 [CBK305903]	113.419
Fc1ccc(CCNc2ccc3nncn3n2)cc1 [CBK287909]	106.074
CC(NC(=O)C1CCN(Cc2cccs2)CC1)c1ccc(F)cc1 (centres unmarked) [CBK148041]	171.19
O=C1CC(C(=O)N2CCc3ncc(Cl)cc3C2)c2ccccc2N1 (centres unmarked) [CBK284976]	132.624
Cc1ncncc1C(=O)N1CCc2sccc2C1c1ccccc1 (centres unmarked) [CBK281386]	94.8147
Cc1ccn2c(CN3CCC(n4nc(C)cc4C)CC3)c(C)nc2c1 [CBK281616]	138.792
OCCOc1cccc(-c2nnco2)c1 [CBK000033]	122.453
Cc1oc2[nH]c(CN(C)CCOc3ccc(Cl)cc3)nc(=N)c2c1C(=O)O [CBK279463]	138.173
CC1CCCCN1C(=O)CCn1c(-c2cccnc2)cc2cccnc21 (centres unmarked) [CBK282692]	120.473
CN1CCN(CC(=O)Nc2sc3c(c2C(=O)NCc2ccccc2)CCCC3)CC1 [CBK268207]	105.587
CC(CNC(=O)c1cccn(CC(=O)Nc2ccc(F)cc2)c1=O)N1CCCCCC1 (centres unmarked) [CBK286123]	119.363
O=C(O)c1cccc(NC(=O)c2c(C(=O)O)cccc2[N+](=O)[O-])c1 [CBK261096]	100
COc1cc(C(O)CNC(=O)c2cnc(-c3ccc(F)cc3)c(-c3cccc(N)c3)c2)ccc1O (centres unmarked) [CBK038032]	68.1485
O=C1C2C(c3ccccc3Cl)OC3(C(=O)c4ccccc4C3=O)C2C(=O)N1c1ccc([N+](=O)[O-])cc1 (centres unmarked) [CBK262425]	120.901
